The values that follow come from PubChem BioAssay AID1961 (Sanford-Burnham Center for Chemical Genomics, 2009).

Structures are written as SMILES. This is one part of the list.

A short description of this experiment: selective activators of receptor GPR55 – imaging, U2OS cells, beta-arrestin-GFP redistribution, primary screen (AID 1961).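 Further: U2OS osteosarcoma cells stably expressing GPR55 and beta-arrestin-GFP.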 To be noted: measured here: cytotoxicity, cells analyzed, at 10 µM.
Compound `Cc1cc(C)cc(N(C(=O)c2ccccc2)C2CCN(C(=O)OC(C)(C)C)CC2)c1` returned a cell count of 393 cells.
For `O=C(NCC1(N2CCOCC2)CCCCC1)c1cc2ccccc2o1`, the cell count amounted to 298 cells.
Turning to `O=C(OC1CN2CCC1CC2)C1c2ccccc2Oc2ccccc21` (centres undefined), the cell count was found to be 318 cells.
In the case of `N#CC1(Nc2ccccc2)CCN(Cc2ccccc2)CC1` it was 318 cells; in that of `CCOC(=O)N1CCC(Nc2ccc(OC)cc2)CC1`, 236 cells; in that of `CC(C)(C)OC(=O)N1CCC(N(C(=O)c2ccccc2)c2ccc(F)cc2)CC1`, 318 cells.
`COc1ccc(C(=O)NCC2(N3CCCCC3)CCCCC2)c(OC)c1OC` registered a cell count of 315 cells.
In the case of `COc1ccc(C(=O)NCC2(N3CCCCC3)CCCCC2)cc1`, the cell count turned out to be 376 cells.
As for `O=C(NCC1(N2CCCCC2)CCCCC1)c1ccc(=O)[nH]c1`, the cell count came to 340 cells.
On to `CSc1ccccc1C(=O)NCC1(N2CCCCC2)CCCCC1`, for which the cell count was determined as 331 cells.
For the compound `Cc1ccc(OCC(C)C)c(CN(CCCl)CCCl)c1`, the cell count was 332 cells.
In the case of `COc1cc(C(=O)NCC2(N(C)C)CCCCC2)ccc1OC(F)F` it was 364 cells; in that of `CCOC(=O)N1CCC(Nc2cccc(C)c2)CC1`, 424 cells.
`CCOc1ccc(C)cc1CN(CCCl)CCCl` showed a cell count of 353 cells.
In the case of `CCOC(=O)N1CCC(Nc2ccc(F)cc2)CC1` it was 346 cells; in that of `COc1ccc(NC2CCN(CCc3ccccc3)CC2)c(OC)c1`, 391 cells.
In the case of `O=C(NCC1(N2CCCCC2)CCCCC1)c1ccc(F)cc1` it was 324 cells; in that of `O=C(NCC1(N2CCCCC2)CCCCC1)c1cccc(C(F)(F)F)c1`, 292 cells; in that of `O=C(NCC1(N2CCOCC2)CCCCC1)c1cc(=O)[nH]c2ccccc12`, 375 cells.
The compound `COc1cc(C(=O)NCC2(N3CCCCC3)CCCCC2)ccc1OC(F)F` registered a cell count of 320 cells.
`COc1ccc(NC2CCN(C(=O)OC(C)(C)C)CC2)cc1` returned a cell count of 262 cells.
As to `CN1CCN(CCOC(=O)C(O)(c2ccccc2)c2ccccc2)CC1`, the cell count amounted to 336 cells.
On to `O=C(NCC1(N2CCCCC2)CCCCC1)c1ccc(OC(F)F)cc1`, for which the cell count was determined as 373 cells.
The compound `N#CC1(Nc2ccccc2)CCN(CCc2ccccc2)CC1` came in with a cell count of 350 cells.
In the case of `CCN1CCC(Nc2ccc(Cl)cc2)CC1`, the cell count is 423 cells.
With `O=C(NCC1(N2CCCCC2)CCCCC1)c1cccc([N+](=O)[O-])c1` the figure was 235 cells; with `CCCOc1ccc(C(=O)NCC2(N(C)C)CCCCC2)cc1OC`, 383 cells; with `CC(C)c1ccc(NC2CCN(C(=O)OC(C)(C)C)CC2)cc1`, 254 cells.
Regarding `CN(C)c1cccc(C(=O)NCC2(N3CCCCC3)CCCCC2)c1`, the cell count was 266 cells.
For `COc1ccc(CN(CCCl)CCCl)cc1Cl`, the cell count is 408 cells.
With `COc1cc(OC)c(C(=O)NCC2(N(C)C)CCCCC2)cc1OC` the figure was 335 cells; with `CCOC(=O)N1CCC(Nc2ccc(C)cc2)CC1`, 431 cells.
Compound `N/C(=N\O)c1c(N)no[n+]1[O-]` had a cell count of 304 cells.
`O=C(OC1CN2CCC1CC2)C1c2ccccc2C=Cc2ccccc21` (centres undefined): the cell count came out at 328 cells.
`COc1ccc(C(=O)NCC2(N3CCOCC3)CCCCC2)cc1OC` displayed a cell count of 268 cells.
`CN(C)C1(CNC(=O)c2cccc(C#N)c2)CCCCC1` showed a cell count of 353 cells.
In the case of `CCCN1CCC(Nc2cc(OC)cc(OC)c2)CC1`, the cell count came out at 405 cells.
`c1ccc(CN2CCC(Nc3ccccc3)CC2)cc1` returned a cell count of 357 cells.
`N#Cc1ccc(C(=O)NCC2(N3CCCCC3)CCCCC2)cc1`: the cell count is 259 cells.
`CC(C)(C)OC(=O)N1CCC(N(C(=O)c2ccccc2)c2ccc(Cl)cc2)CC1`: the cell count came out at 352 cells.
In turn, `CCN1CCC(Nc2cccc(F)c2)CC1` returned a cell count of 357 cells.
Compound `CN(C)c1ccc(C(=O)NCC2(N3CCCCC3)CCCCC2)cc1` registered a cell count of 268 cells.
Regarding `COc1cc(OC)cc(C(=O)NCC2(N3CCCCC3)CCCCC2)c1`, the cell count was 375 cells.
As to `Fc1ccccc1NC1CCN(Cc2ccccc2)CC1`, the cell count came to 348 cells.
Compound `COc1cccc(C(=O)N(c2cc(C)cc(C)c2)C2CCN(C(=O)OC(C)(C)C)CC2)c1` returned a cell count of 361 cells.
`COc1cc(OC)cc(C(=O)NCC2(N3CCOCC3)CCCCC2)c1` came in with a cell count of 253 cells.
On to `CCC(CO)(C(=O)OC1CN2CCC1CC2)c1ccccc1` (centres undefined), for which the cell count turned out to be 328 cells.
As for `CN1CCC(Nc2ccc(Cl)cc2)CC1`, the cell count was found to be 381 cells.
As to `CCCOc1ccc(C)cc1CN(CCCl)CCCl`, the cell count was 316 cells.
In the case of `CN1CCC(Nc2ccc(F)c(Cl)c2)CC1` it was 400 cells; in that of `CCOc1ncccc1C(=O)NCC1(N2CCOCC2)CCCCC1`, 336 cells; in that of `O=C(O)C1(Nc2ccccc2)CCN(Cc2ccccc2)CC1`, 333 cells.
Compound `CC(C)(C)OC(=O)N1CCC(Nc2ccccc2)CC1` returned a cell count of 224 cells.
`CCCOc1ccc(C(=O)NCC2(N(C)C)CCCCC2)cc1` displayed a cell count of 385 cells.
